We go through 1 molecule from publication PMC10750274.

Chains of the proteins cited; added tags and fusions are not shown.
UniProt P05556: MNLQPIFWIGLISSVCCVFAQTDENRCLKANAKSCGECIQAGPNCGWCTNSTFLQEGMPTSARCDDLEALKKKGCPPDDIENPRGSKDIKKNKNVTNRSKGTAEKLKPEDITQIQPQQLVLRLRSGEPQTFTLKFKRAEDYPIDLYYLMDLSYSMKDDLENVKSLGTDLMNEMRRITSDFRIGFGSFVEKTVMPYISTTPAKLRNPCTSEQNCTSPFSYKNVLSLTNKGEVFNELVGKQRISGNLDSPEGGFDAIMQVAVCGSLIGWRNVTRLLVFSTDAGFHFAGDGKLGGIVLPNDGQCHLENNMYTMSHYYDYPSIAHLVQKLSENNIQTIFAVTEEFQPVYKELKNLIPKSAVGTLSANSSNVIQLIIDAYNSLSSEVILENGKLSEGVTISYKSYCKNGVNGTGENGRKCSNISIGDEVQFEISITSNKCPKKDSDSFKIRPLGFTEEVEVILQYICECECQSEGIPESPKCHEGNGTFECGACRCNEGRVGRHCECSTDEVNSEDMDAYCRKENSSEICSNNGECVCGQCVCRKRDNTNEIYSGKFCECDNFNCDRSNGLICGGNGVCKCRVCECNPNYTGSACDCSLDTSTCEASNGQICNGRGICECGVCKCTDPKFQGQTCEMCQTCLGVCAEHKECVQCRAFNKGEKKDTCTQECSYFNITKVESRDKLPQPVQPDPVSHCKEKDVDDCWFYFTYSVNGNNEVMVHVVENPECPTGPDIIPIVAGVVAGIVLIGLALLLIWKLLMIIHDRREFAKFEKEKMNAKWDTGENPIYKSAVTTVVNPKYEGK

The assay deals with integrin β1 (human (endogenous in AN3CA)) (UniProt P05556). Nature of the assay: co-IP; AN3CA cells treated with 150 ng/ml rhNTN4 for 1 hour; whole cell lysate (1 mg total protein) immunoprecipitated with anti-His or anti-ITGB1 antibody (2 μg) or normal rabbit IgG overnight at 4 °C, protein G Mag Sepharose beads; Western blot for rhNTN4 and integrin β1; only the binder purified. (A western blot detects proteins with antibodies after separation by electrophoresis.)

No constants are given. Whether binding was seen depends on the method and setting. Binding seen in cells or lysates may run through a third protein. Some entries that bind do so weakly or less than the wild type.

B1: Recombinant human NTN4 protein (netrin4) (ligand, UniProt Q9HB63 19-628)
chain: GLSGVAGVSSRCEKACNPRMGNLALGRKLWADTTCGQNATELYCFYSENTDLTCRQPKCDKCNAAYPHLAHLPSAMADSSFRFPRTWWQSAEDVHREKIQLDLEAEFYFTHLIVMFKSPRPAAMVLDRSQDFGKTWKPYKYFATNCSATFGLEDDVVKKGAICTSKYSSPFPCTGGEVIFKALSPPYDTENPYSAKVQEQLKITNLRVQLLKRQSCPCQRNDLNEEPQHFTHYAIYDFIVKGSCFCNGHADQCIPVHGFRPVKAPGTFHMVHGKCMCKHNTAGSHCQHCAPLYNDRPWEAADGKTGAPNECRTCKCNGHADTCHFDVNVWEASGNRSGGVCDDCQHNTEGQYCQRCKPGFYRDLRRPFSAPDACKPCSCHPVGSAVLPANSVTFCDPSNGDCPCKPGVAGRRCDRCMVGYWGFGDYGCRPCDCAGSCDPITGDCISSHTDIDWYHEVPDFRPVHNKSEPAWEWEDAQGFSALLHSGKCECKEQTLGNAKAFCGMKYSYVLKIKILSAHDKGTHVEVNVKIKKVLKSTKLKIFRGKRTLYPESWTDRGCTCPILNPGLEYLVAGHEDIRTGKLIVNMKSFVQHWKPSLGRKVMDILKRECK
With B1, the binding result was “binds”.
